According to patent publication US8383139B2 (Bayer CropScience AG, priority 2008, dated 2013):
Some entries share one result that the patent states for a list of compounds.

Experiments:
Assay type in all cases: in vivo
Uromyces appendiculatus = assay: Uromyces test (beans)/protective; conditions: 100 ppm active substance, protective, evaluation 10 days after inoculation
Protocol: (§1) • Solvents: 24.5 parts by weight of acetone • 24.5 parts by weight of dimethylacetamide • Emulsifier: 1 part by weight of alkylaryl polyglycol ether (polyoxyethylene (16) tristearylphenyl ether)
(§2) To prepare a suitable active substance composition, 1 part by weight of active substance is mixed with the given amounts of solvents and emulsifier and the concentrate is diluted to the desired concentration using water.
For the testing of protective effectiveness, young plants are sprayed with the active substance composition in the application rate given. After the spray coating has been dried on, the plants are inoculated with an aqueous suspension of the spores of the bean rust pathogen Uromyces appendiculatus and then remain in an incubation chamber at approximately 20° C. and 100% relative humidity for 1 day.
The plants are then placed in a greenhouse at approximately 21° C. and a relative humidity of approximately 90%.
Evaluation is carried out 10 days after the inoculation. In this connection, 0% means a degree of effectiveness corresponding to that of the control, while a degree of effectiveness of 100% means that no infestation is observed.

Sphaerotheca fuliginea = assay: Sphaerotheca test (cucumber)/protective; conditions: 500 ppm active substance, protective, evaluation 7 days after inoculation
Protocol: • Solvents: 49 parts by weight of N,N-dimethylformamide • Emulsifier: 1 part by weight of alkylaryl polyglycol ether (polyoxyethylene (16) tristearylphenyl ether) To prepare a suitable active substance composition, 1 part by weight of active substance is mixed with the given amounts of solvents and emulsifier and the concentrate is diluted to the desired concentration using water. For the testing of protective effectiveness, young cucumber plants are sprayed with the active substance composition in the application rate given. One day after the treatment, the plants are inoculated with a suspension of spores of Sphaerotheca fuliginea. Subsequently, the plants are placed in a greenhouse at 70% relative humidity and at a temperature of 23° C. Evaluation is carried out 7 days after the inoculation. In this connection, 0% means a degree of effectiveness corresponding to that of the control, while a degree of effectiveness of 100% means that no infestation is observed.

Alternaria solani = assay: Alternaria test (tomato)/protective; conditions: 100 ppm active substance, protective, evaluation 3 days after inoculation
Protocol: as §1, §2
For the testing of protective effectiveness, young plants are sprayed with the active substance composition in the application rate given. After the spray coating has been dried on, the plants are inoculated with an aqueous suspension of spores of Alternaria solani. The plants are then placed in an incubation chamber at approximately 20° C. and 100% relative humidity.
Evaluation is carried out 3 days after the inoculation. In this connection, 0% means a degree of effectiveness corresponding to that of the control, while a degree of effectiveness of 100% means that no infestation is observed.

Septoria tritici = Septoria tritici test (wheat)/protective; conditions: 500 ppm active substance, protective, evaluation 21 days after inoculation
Protocol: • Solvent: 50 parts by weight of N,N-dimethylacetamide • Emulsifier: 1 part by weight of alkylaryl polyglycol ether (polyoxyethylene (16) tristearylphenyl ether) To prepare a suitable active substance composition, 1 part by weight of active substance is mixed with the given amounts of solvent and emulsifier and the concentrate is diluted to the desired concentration using water. For the testing of protective effectiveness, young plants are sprayed with the active substance composition at the application rate given. After the spray coating has dried on, the plants are sprayed with a suspension of spores of Septoria tritici. The plants remain in an incubation chamber at 20° C. and 100% relative humidity for 48 hours. The plants are afterwards placed under a transparent hood at 15° C. and 100% relative humidity for a further 60 hours. The plants are placed in a greenhouse at a temperature of approximately 15° C. and a relative humidity of 80%. Evaluation is carried out 21 days after the inoculation. In this connection, 0% means a degree of effectiveness corresponding to that of the control, while a degree of effectiveness of 100% means that no infestation is observed.

Puccinia triticina = Puccinia triticina test (wheat)/protective; conditions: 500 ppm active substance, protective, evaluation 8 days after inoculation
Protocol: • Solvent: 50 parts by weight of N,N-dimethylacetamide • Emulsifier: 1 part by weight of alkylaryl polyglycol ether (polyoxyethylene (16) tristearylphenyl ether) To prepare a suitable active substance composition, 1 part by weight of active substance is mixed with the given amounts of solvent and emulsifier and the concentrate is diluted to the desired concentration using water. For the testing of protective effectiveness, young plants are sprayed with the active substance composition in the application rate given. After the spray coating has been dried on, the plants are sprayed with spores with a suspension of spores of Puccinia triticina. The plants remain in an incubation chamber at 20° C. and 100% relative humidity for 48 hours. The plants are placed in a greenhouse at a temperature of approximately 20° C. and a relative humidity of approximately 80%. Evaluation is carried out 8 days after the inoculation. In this connection, 0% means a degree of effectiveness corresponding to that of the control, while a degree of effectiveness of 100% means that no infestation is observed.

Measured: degree of effectiveness

CCN(C)C=Nc1cc(C)c(Oc2nc(Cc3ccc(SC(F)(F)F)cc3)ns2)cc1C [Example 102]
≥ 70%: all assays above

Cc1cc(Oc2nc(Cc3ccc(F)cc3)ns2)c(C)cc1N=CN1CCCCC1 [Example 57]
not listed: Alternaria solani
≥ 70%: all other assays above

Cc1ccc(Cc2nsc(Oc3cc(C)c(N=CN4CCCCC4)cc3C)n2)c([N+](=O)[O-])c1 [Example 103]
≥ 70%: Sphaerotheca fuliginea | Puccinia triticina

Cc1cc(Oc2nc(Cc3ccccc3[N+](=O)[O-])ns2)c(C)cc1N=CN1CCCCC1 [Example 121]
≥ 70%: Sphaerotheca fuliginea

Cc1cc(Oc2nc(Cc3ccc(SC(F)(F)F)cc3)ns2)c(C)cc1N=CN1CCCCC1 [Example 88]
≥ 70%: Sphaerotheca fuliginea | Alternaria solani

CCN(C)C=Nc1cc(C)c(Oc2nc(Cc3ccc4ccccc4c3)ns2)cc1C [Example 112]
≥ 70%: Uromyces appendiculatus | Sphaerotheca fuliginea | Alternaria solani

CCN(C)C=Nc1cc(C)c(Oc2nc(Cc3ccc(F)cc3)ns2)cc1C [Example 60]
≥ 70%: all assays above

CCN(C)C=Nc1cc(C(C)C)c(Oc2nc(Cc3ccc(Br)cc3)ns2)cc1C [Example 111]
≥ 70%: all assays above

Cc1cc(Oc2nc(Cc3ccc(C#N)cc3)ns2)c(C)cc1N=CN1CCCCC1 [Example 82]
≥ 70%: all assays above

Cc1cc(Oc2nc(Cc3cccc(F)c3)ns2)c(C)cc1N=CN1CCCCC1 [Example 81]
≥ 70%: all assays above

Cc1cc(Oc2nc(Cc3c(F)cc(F)cc3F)ns2)c(C)cc1N=CN1CCCCC1 [Example 117]
≥ 70%: Uromyces appendiculatus | Sphaerotheca fuliginea | Alternaria solani

Cc1cc(Oc2nc(Cc3ccc(OC(F)(F)F)cc3)ns2)c(C)cc1N=CN1CCCCC1 [Example 58]
≥ 70%: all assays above

CCN(C)C=Nc1cc(C)c(Oc2nc(Cc3cccc(C)c3)ns2)cc1C [Example 113]
≥ 70%: Uromyces appendiculatus | Sphaerotheca fuliginea | Alternaria solani

Cc1cc(Oc2nc(Cc3ccc(Cl)cc3)ns2)c(C)cc1N=CN(C)C1CC1 [Example 123]
≥ 70%: Uromyces appendiculatus | Sphaerotheca fuliginea | Alternaria solani

CCN(C)C=Nc1cc(C)c(Oc2nc(Cc3ccc(F)c(F)c3)ns2)cc1C [Example 54]
≥ 70%: Uromyces appendiculatus | Sphaerotheca fuliginea | Alternaria solani

Cc1cccc(Cc2nsc(Oc3cc(C)c(N=CN4CCCCC4)cc3C)n2)c1 [Example 114]
≥ 70%: Uromyces appendiculatus | Sphaerotheca fuliginea | Alternaria solani

Cc1cc(Oc2nc(Cc3ccc4ccccc4c3)ns2)c(C)cc1N=CN1CCCCC1 [Example 92]
≥ 70%: Sphaerotheca fuliginea

CCN(C)C=Nc1cc(C)c(Oc2nc(Cc3cc(Br)c(F)cc3C)ns2)cc1C [Example 116]
≥ 70%: Uromyces appendiculatus | Sphaerotheca fuliginea | Alternaria solani

Cc1cc(Oc2nc(Cc3ccc(F)c(C(F)(F)F)c3)ns2)c(C)cc1N=CN1CCCCC1 [Example 91]
≥ 70%: Sphaerotheca fuliginea

CCN(C)C=Nc1cc(C)c(Oc2nc(Cc3ccc(OC(F)(F)F)cc3)ns2)cc1C [Example 56]
≥ 70%: Uromyces appendiculatus | Sphaerotheca fuliginea | Alternaria solani

CCN(C)C=Nc1cc(Cl)c(Oc2nc(Cc3ccc(Cl)cc3Cl)ns2)cc1C [Example 118]
≥ 70%: Uromyces appendiculatus | Sphaerotheca fuliginea | Alternaria solani

COc1cccc(Cc2nsc(Oc3cc(C)c(N=CN4CCCCC4)cc3C)n2)c1 [Example 87]
≥ 70%: Sphaerotheca fuliginea

Cc1cc(Oc2nc(Cc3ccc(-c4ccccc4)cc3)ns2)c(C)cc1N=CN1CCCCC1 [Example 70]
≥ 70%: Sphaerotheca fuliginea | Alternaria solani | Puccinia triticina

Cc1cc(Oc2nc(Cc3c(Cl)cccc3Cl)ns2)c(C)cc1N=CN1CCCCC1 [Example 86]
≥ 70%: Sphaerotheca fuliginea

Cc1ccc(Cc2nsc(Oc3cc(C)c(N=CN4CCCCC4)cc3C)n2)cc1 [Example 122]
≥ 70%: Sphaerotheca fuliginea

Cc1cc(Oc2nc(Cc3cccc(Cl)c3Cl)ns2)c(C)cc1N=CN1CCCCC1 [Example 93]
≥ 70%: Uromyces appendiculatus | Sphaerotheca fuliginea | Puccinia triticina

Cc1cc(Oc2nc(Cc3ccc4ccccc4c3)ns2)c(C)cc1N=CN1CCCCC1 [Example 107]
not listed: Uromyces appendiculatus
≥ 70%: all other assays above

CCN(C)C=Nc1cc(Cl)c(Oc2nc(Cc3ccc(Br)cc3)ns2)cc1C [Example 119]
≥ 70%: Uromyces appendiculatus | Sphaerotheca fuliginea | Alternaria solani

Cc1cc(Oc2nc(Cc3ccc(Oc4ccccc4)cc3)ns2)c(C)cc1N=CN1CCCCC1 [Example 85]
not listed: Uromyces appendiculatus
≥ 70%: all other assays above

CCN(C)C=Nc1cc(C)c(Oc2nc(Cc3ccc(C)cc3)ns2)cc1C [Example 120]
≥ 70%: Uromyces appendiculatus | Sphaerotheca fuliginea | Alternaria solani

Cc1cc(F)c(Br)cc1Cc1nsc(Oc2cc(C)c(N=CN3CCCCC3)cc2C)n1 [Example 115]
≥ 70%: Sphaerotheca fuliginea

Cc1cc(Oc2nc(Cc3ccc(F)c(F)c3)ns2)c(C)cc1N=CN1CCCCC1 [Example 63]
not listed: Alternaria solani
≥ 70%: all other assays above

Cc1ccc(Br)cc1Cc1nsc(Oc2cc(C)c(N=CN3CCCCC3)cc2C)n1 [Example 83]
not listed: Uromyces appendiculatus
≥ 70%: all other assays above
